This passage reports binding results from PMC3622178.

Chains of the proteins cited; added tags and fusions are not shown. Lines headed by an entry give the natural chain unless they say otherwise; changes in a name come on top.
UniProt Q9WTL8: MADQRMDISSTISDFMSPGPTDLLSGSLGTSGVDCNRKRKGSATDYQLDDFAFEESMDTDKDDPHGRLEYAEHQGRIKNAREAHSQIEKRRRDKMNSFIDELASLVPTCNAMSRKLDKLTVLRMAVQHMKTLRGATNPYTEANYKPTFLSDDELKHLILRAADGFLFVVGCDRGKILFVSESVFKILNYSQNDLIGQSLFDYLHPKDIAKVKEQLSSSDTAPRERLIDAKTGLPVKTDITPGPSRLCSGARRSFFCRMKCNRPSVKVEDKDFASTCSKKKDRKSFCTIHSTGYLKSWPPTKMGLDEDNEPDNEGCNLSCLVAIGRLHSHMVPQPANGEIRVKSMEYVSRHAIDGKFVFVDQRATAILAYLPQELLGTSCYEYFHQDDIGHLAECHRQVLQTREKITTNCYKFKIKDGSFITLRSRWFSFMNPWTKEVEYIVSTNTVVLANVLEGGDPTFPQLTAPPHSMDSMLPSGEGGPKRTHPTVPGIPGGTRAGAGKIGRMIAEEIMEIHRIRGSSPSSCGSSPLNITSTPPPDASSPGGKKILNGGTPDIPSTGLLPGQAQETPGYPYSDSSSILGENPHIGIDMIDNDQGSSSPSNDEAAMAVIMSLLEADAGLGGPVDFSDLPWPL
UniProt O08785: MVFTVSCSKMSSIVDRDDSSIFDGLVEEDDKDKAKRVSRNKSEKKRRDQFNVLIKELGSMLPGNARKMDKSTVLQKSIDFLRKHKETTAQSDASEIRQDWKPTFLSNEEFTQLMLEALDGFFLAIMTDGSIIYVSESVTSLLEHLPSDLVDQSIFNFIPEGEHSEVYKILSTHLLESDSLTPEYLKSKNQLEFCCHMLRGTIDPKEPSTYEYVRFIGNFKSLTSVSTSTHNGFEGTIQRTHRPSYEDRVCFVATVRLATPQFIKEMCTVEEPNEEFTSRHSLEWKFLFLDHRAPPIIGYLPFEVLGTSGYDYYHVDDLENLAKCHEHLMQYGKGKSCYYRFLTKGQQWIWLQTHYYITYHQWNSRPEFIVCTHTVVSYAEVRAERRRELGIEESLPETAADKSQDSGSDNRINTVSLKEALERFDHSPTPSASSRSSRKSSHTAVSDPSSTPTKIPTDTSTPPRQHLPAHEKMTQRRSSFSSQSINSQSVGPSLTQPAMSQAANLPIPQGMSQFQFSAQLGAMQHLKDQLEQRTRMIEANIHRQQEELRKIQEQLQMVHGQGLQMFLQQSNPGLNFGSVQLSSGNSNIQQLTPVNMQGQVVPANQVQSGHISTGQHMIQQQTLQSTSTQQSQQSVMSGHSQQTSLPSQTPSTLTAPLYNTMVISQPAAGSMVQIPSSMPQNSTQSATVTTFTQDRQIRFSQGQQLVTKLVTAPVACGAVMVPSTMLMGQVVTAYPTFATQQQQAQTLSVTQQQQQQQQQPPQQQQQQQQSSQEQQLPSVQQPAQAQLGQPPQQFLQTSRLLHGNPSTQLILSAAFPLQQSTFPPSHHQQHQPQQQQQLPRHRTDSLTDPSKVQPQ

This test addresses BMAL1 (mouse (endogenous in C57BL/6J liver)) (UniProt Q9WTL8). In words: native gel or EMSA; antibody supershift of protein complexes on 32P-labelled tandem E-box probes (Dbp EP, Dbp EI2, Per2 E', Per1 EP1); 15 ug liver nuclear protein (ZT8), 25 mM HEPES-KOH pH 7.6, 150 mM NaCl, 0.1 mM EDTA, 1 mM DTT; 16°C 30 min; anti-CLOCK or anti-BMAL1 added before the probe. Background: Mobility shift assays separate free from complexed probe on a gel.

Results are given in words; binding and its absence hold for the method and conditions named. Binding can be weak; no strength is given.

Take CLOCK^Δ19 (from UniProt O08785): the binding entry is given as “binds”.
